# Laboratory results as given in the supplement of paper PMC8728848.
# Some of the results follow.
# Key:
# Experiment in all cases: glycan array binding signal (z-score within array); higher = stronger binding
# Conditions in all cases: glycan notation: IUPAC condensed, linker removed
# [1] = target: Fuc(a1-2)[Gal(a1-3)]Gal(b1-4)GlcNAc(b1-2)Man(a1-3)[Fuc(a1-2)[Gal(a1-3)]Gal(b1-4)GlcNAc(b1-2)Man(a1-6)]Man(b1-4)GlcNAc(b1-4)[Fuc(a1-6)]GlcNAc
# Outline: (§1)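 Arrays were curated from the Consortium for Functional Glycomics database, 3228 in total, and kept only where the protein sequence was available. Binding is expressed as a within-array Z-score. This score was averaged across arrays of the same protein sequence at different concentrations or buffers and across linkers, and negative values can be read as non-binding.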
# [2] = target: Fuc(a1-2)[Gal(a1-3)]Gal(b1-4)GlcNAc(b1-3)GalNAc
# Outline: as §1
# [3] = target: Fuc(a1-2)[Gal(a1-3)]Gal(b1-4)GlcNAc(b1-3)[Fuc(a1-2)[Gal(a1-3)]Gal(b1-4)GlcNAc(b1-6)]GalNAc
# Outline: as §1
# [4] = target: Fuc(a1-2)[Gal(a1-3)]Gal(b1-4)GlcNAc(b1-6)GalNAc
# Outline: as §1
# [5] = target: Fuc(a1-2)[Gal(a1-3)]Gal(b1-4)[Fuc(a1-3)]Glc
# Outline: as §1
# [6] = target: Fuc(a1-2)[Gal(a1-3)]Gal(b1-4)[Fuc(a1-3)]GlcNAc
# Outline: as §1
# [7] = target: Fuc(a1-2)[Gal(a1-3)]Gal(b1-4)[Fuc(a1-3)]GlcNAc(b1-3)GalNAc
# Outline: as §1
# [8] = target: Fuc(a1-2)[Gal(a1-4)]Gal(b1-4)GlcNAc
# Outline: as §1
# [9] = target: Fuc(a1-2)[GalNAc(a1-3)]Gal
# Outline: as §1
# [10] = target: Fuc(a1-2)[GalNAc(a1-3)]Gal(b1-3)GalNAc(a1-3)[Fuc(a1-2)]Gal(b1-4)GlcNAc
# Outline: as §1
# [11] = target: Fuc(a1-2)[GalNAc(a1-3)]Gal(b1-3)GalNAc(b1-3)Gal(a1-4)Gal(b1-4)Glc
# Outline: as §1
# [12] = target: Fuc(a1-2)[GalNAc(a1-3)]Gal(b1-3)GlcNAc
# Outline: as §1
# [13] = target: Fuc(a1-2)[GalNAc(a1-3)]Gal(b1-3)GlcNAc(b1-2)Man(a1-3)[Fuc(a1-2)[GalNAc(a1-3)]Gal(b1-3)GlcNAc(b1-2)Man(a1-6)]Man(b1-4)GlcNAc(b1-4)GlcNAc
# Outline: as §1
# [14] = target: Fuc(a1-2)[GalNAc(a1-3)]Gal(b1-3)GlcNAc(b1-2)Man(a1-3)[Fuc(a1-2)[GalNAc(a1-3)]Gal(b1-3)GlcNAc(b1-2)Man(a1-6)]Man(b1-4)GlcNAc(b1-4)[Fuc(a1-6)]GlcNAc
# Outline: as §1
# [15] = target: Fuc(a1-2)[GalNAc(a1-3)]Gal(b1-3)GlcNAc(b1-3)GalNAc
# Outline: as §1
# [16] = target: Fuc(a1-2)[GalNAc(a1-3)]Gal(b1-3)GlcNAc(b1-6)GalNAc
# Outline: as §1
# [17] = target: Fuc(a1-2)[GalNAc(a1-3)]Gal(b1-4)Glc
# Outline: as §1
# [18] = target: Fuc(a1-2)[GalNAc(a1-3)]Gal(b1-4)GlcNAc
# Outline: as §1
# [19] = target: Fuc(a1-2)[GalNAc(a1-3)]Gal(b1-4)GlcNAc(b1-2)Man
# Outline: as §1
# [20] = target: Fuc(a1-2)[GalNAc(a1-3)]Gal(b1-4)GlcNAc(b1-2)Man(a1-3)[Fuc(a1-2)[GalNAc(a1-3)]Gal(b1-4)GlcNAc(b1-2)Man(a1-6)]Man(b1-4)GlcNAc(b1-4)GlcNAc
# Outline: as §1
# [21] = target: Fuc(a1-2)[GalNAc(a1-3)]Gal(b1-4)GlcNAc(b1-2)Man(a1-3)[Fuc(a1-2)[GalNAc(a1-3)]Gal(b1-4)GlcNAc(b1-2)Man(a1-6)]Man(b1-4)GlcNAc(b1-4)[Fuc(a1-6)]GlcNAc
# Outline: as §1
# [22] = target: Fuc(a1-2)[GalNAc(a1-3)]Gal(b1-4)GlcNAc(b1-3)Gal(b1-4)GlcNAc
# Outline: as §1
# [23] = target: Fuc(a1-2)[GalNAc(a1-3)]Gal(b1-4)GlcNAc(b1-3)Gal(b1-4)GlcNAc(b1-3)Gal(b1-4)GlcNAc
# Outline: as §1
# [24] = target: Fuc(a1-2)[GalNAc(a1-3)]Gal(b1-4)GlcNAc(b1-3)GalNAc
# Outline: as §1
# [25] = target: Fuc(a1-2)[GalNAc(a1-3)]Gal(b1-4)GlcNAc(b1-3)[Fuc(a1-2)[GalNAc(a1-3)]Gal(b1-4)GlcNAc(b1-6)]GalNAc
# Outline: as §1
# [26] = target: Fuc(a1-2)[GalNAc(a1-3)]Gal(b1-4)GlcNAc(b1-6)GalNAc
# Outline: as §1
# [27] = target: Fuc(a1-2)[GalNAc(a1-3)]Gal(b1-4)[Fuc(a1-3)]GlcNAc
# Outline: as §1
# [28] = target: Fuc(a1-2)[GalNAc(a1-3)]Gal(b1-4)[Fuc(a1-3)]GlcNAc(b1-3)GalNAc
# Outline: as §1
# [29] = target: Fuc(a1-2)[GalNAc(a1-4)]Gal(b1-4)GlcNAc
# Outline: as §1
# [30] = target: Fuc(a1-2)[GalNAc(b1-3)]Gal
# Outline: as §1
# Fuc(a1-3)GlcNAc = target: Fuc(a1-3)GlcNAc
# Outline: as §1
# [31] = target: Fuc(a1-3)[Gal(b1-4)]Glc6S
# Outline: as §1
# [32] = target: Fuc(a1-3)[Gal(b1-4)]GlcNAc
# Outline: as §1
# [33] = target: Fuc(a1-3)[Gal(b1-4)]GlcNAc(b1-2)Man
# Outline: as §1
# [34] = target: Fuc(a1-3)[Gal(b1-4)]GlcNAc(b1-2)Man(a1-3)[Fuc(a1-3)[Gal(b1-4)]GlcNAc(b1-2)Man(a1-6)]Man(b1-4)GlcNAc(b1-4)GlcNAc
# Outline: as §1
# [35] = target: Fuc(a1-3)[Gal(b1-4)]GlcNAc(b1-2)Man(a1-3)[Fuc(a1-3)[Gal(b1-4)]GlcNAc(b1-2)Man(a1-6)]Man(b1-4)GlcNAc(b1-4)[Fuc(a1-6)]GlcNAc
# Outline: as §1
# [36] = target: Fuc(a1-3)[Gal(b1-4)]GlcNAc(b1-3)Gal(b1-3)[Fuc(a1-4)]GlcNAc
# Outline: as §1
binder,measurement,setting,value
"Clec18Av1 (Homo sapiens), A5D8T8 (protein) MLHPETSPGRGHLLAVLLALLGTAWAEVWPPQLQEQAPMAGALNRKESFLLLSLHNRLRSWVQPPAADMRRLDWSDSLAQLAQARAALCGTPTPSLASGLWRTLQVGWNMQLLPAGLVSFVEVVSLWFAEGQRYSHAAGECARNATCTHYTQLVWATSSQLGCGRHLCSAGQAAIEAFVCAYSPRGNWEVNGKTIVPYKKGAWCSLCTASVSGCFKAWDHAGGLCEVPRNPCRMSCQNHGRLNISTCHCHCPPGYTGRYCQVRCSLQCVHGRFREEECSCVCDIGYGGAQCATKVHFPFHTCDLRIDGDCFMVSSEADTYYRARMKCQRKGGVLAQIKSQKVQDILAFYLGRLETTNEVIDSDFETRNFWIGLTYKTAKDSFRWATGEHQAFTSFAFGQPDNHGFGNCVELQASAAFNWNDQRCKTRNRYICQFAQEHISRWGPGS",glycan array binding signal (z-score),[1],0.435
same,glycan array binding signal (z-score),[2],0.886
same,glycan array binding signal (z-score),[3],1.02
same,glycan array binding signal (z-score),[4],-0.84
same,glycan array binding signal (z-score),[5],-0.849
same,glycan array binding signal (z-score),[6],-0.344
same,glycan array binding signal (z-score),[7],-0.446
same,glycan array binding signal (z-score),[8],-0.251
same,glycan array binding signal (z-score),[9],-0.304
same,glycan array binding signal (z-score),[10],-0.851
same,glycan array binding signal (z-score),[11],0.541
same,glycan array binding signal (z-score),[12],-0.502
same,glycan array binding signal (z-score),[13],0.685
same,glycan array binding signal (z-score),[14],-0.378
same,glycan array binding signal (z-score),[15],-0.588
same,glycan array binding signal (z-score),[16],0.146
same,glycan array binding signal (z-score),[17],-0.854
same,glycan array binding signal (z-score),[18],-0.045
same,glycan array binding signal (z-score),[19],-0.791
same,glycan array binding signal (z-score),[20],0.028
same,glycan array binding signal (z-score),[21],0.487
same,glycan array binding signal (z-score),[22],-0.343
same,glycan array binding signal (z-score),[23],-0.105
same,glycan array binding signal (z-score),[24],-0.79
same,glycan array binding signal (z-score),[25],-0.593
same,glycan array binding signal (z-score),[26],0.672
same,glycan array binding signal (z-score),[27],-0.092
same,glycan array binding signal (z-score),[28],-0.613
same,glycan array binding signal (z-score),[29],1.16
same,glycan array binding signal (z-score),[30],0.898
same,glycan array binding signal (z-score),Fuc(a1-3)GlcNAc,-0.876
same,glycan array binding signal (z-score),[31],0.022
same,glycan array binding signal (z-score),[32],-0.368
same,glycan array binding signal (z-score),[33],-0.833
same,glycan array binding signal (z-score),[34],0.864
same,glycan array binding signal (z-score),[35],1.88
same,glycan array binding signal (z-score),[36],0.526
